# Results taken from the supplement of paper PMC12067093, “Discovery and optimisation of a covalent ligand for TRIM25 and its application to targeted protein ubiquitination” (Chemical Science, 2025).
# Amino acid sequences for entries named in this document (tags omitted). A change or cut given only in a name is not applied to a line headed by its entry.
# UniProt O14545: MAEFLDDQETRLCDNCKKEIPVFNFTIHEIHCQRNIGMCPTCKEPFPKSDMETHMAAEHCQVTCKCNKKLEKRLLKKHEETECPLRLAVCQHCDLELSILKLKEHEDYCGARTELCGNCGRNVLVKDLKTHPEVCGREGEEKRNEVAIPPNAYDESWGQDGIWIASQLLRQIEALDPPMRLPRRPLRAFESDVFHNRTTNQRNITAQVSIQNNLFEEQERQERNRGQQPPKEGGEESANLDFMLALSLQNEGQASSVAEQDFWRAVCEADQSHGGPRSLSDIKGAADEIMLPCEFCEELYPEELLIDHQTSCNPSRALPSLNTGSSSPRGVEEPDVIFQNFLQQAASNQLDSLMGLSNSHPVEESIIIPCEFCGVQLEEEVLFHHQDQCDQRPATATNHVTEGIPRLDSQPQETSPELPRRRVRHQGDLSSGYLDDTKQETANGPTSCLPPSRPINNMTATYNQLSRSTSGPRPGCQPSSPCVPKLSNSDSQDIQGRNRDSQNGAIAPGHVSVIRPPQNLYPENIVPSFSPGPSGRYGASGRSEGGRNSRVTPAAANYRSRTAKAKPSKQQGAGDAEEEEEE
# UniProt Q86W33: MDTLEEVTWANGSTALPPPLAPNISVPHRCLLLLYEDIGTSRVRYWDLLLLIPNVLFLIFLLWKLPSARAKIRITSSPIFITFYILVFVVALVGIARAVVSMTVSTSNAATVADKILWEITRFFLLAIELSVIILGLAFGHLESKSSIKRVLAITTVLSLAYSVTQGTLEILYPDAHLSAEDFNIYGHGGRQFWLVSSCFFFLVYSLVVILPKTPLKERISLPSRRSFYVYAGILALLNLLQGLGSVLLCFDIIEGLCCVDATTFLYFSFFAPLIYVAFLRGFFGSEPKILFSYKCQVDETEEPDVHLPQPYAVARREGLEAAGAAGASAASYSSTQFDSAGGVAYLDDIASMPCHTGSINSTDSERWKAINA
# UniProt Q9NXH9: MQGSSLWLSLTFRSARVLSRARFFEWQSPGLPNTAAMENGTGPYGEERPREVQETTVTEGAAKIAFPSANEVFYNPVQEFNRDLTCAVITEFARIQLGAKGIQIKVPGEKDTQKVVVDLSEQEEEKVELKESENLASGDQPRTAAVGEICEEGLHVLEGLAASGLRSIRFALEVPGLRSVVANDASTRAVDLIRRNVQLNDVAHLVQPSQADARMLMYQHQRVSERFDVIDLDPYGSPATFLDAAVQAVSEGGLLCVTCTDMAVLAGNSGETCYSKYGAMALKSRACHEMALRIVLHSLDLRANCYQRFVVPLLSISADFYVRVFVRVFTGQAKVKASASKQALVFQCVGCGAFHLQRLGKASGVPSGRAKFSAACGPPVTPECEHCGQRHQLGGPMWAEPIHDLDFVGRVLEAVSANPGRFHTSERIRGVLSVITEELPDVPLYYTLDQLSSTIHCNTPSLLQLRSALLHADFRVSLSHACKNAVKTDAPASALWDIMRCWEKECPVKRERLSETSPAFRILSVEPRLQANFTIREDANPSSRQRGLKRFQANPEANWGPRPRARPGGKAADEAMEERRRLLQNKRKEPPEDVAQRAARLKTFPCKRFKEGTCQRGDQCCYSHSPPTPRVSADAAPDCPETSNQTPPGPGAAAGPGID
# UniProt Q12933: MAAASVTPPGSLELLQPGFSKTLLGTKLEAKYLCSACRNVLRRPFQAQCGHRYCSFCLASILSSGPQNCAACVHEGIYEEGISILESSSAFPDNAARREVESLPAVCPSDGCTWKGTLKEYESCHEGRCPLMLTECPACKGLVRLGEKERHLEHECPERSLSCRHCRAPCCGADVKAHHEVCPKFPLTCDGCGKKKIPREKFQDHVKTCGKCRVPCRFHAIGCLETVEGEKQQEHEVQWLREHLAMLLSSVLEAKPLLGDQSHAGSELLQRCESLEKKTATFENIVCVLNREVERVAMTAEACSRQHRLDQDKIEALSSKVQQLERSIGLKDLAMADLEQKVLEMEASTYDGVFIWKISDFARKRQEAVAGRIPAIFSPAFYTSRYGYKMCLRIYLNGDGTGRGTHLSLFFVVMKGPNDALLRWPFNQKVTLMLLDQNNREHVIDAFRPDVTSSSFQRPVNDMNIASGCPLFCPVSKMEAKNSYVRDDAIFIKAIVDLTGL
# UniProt Q9NQ86: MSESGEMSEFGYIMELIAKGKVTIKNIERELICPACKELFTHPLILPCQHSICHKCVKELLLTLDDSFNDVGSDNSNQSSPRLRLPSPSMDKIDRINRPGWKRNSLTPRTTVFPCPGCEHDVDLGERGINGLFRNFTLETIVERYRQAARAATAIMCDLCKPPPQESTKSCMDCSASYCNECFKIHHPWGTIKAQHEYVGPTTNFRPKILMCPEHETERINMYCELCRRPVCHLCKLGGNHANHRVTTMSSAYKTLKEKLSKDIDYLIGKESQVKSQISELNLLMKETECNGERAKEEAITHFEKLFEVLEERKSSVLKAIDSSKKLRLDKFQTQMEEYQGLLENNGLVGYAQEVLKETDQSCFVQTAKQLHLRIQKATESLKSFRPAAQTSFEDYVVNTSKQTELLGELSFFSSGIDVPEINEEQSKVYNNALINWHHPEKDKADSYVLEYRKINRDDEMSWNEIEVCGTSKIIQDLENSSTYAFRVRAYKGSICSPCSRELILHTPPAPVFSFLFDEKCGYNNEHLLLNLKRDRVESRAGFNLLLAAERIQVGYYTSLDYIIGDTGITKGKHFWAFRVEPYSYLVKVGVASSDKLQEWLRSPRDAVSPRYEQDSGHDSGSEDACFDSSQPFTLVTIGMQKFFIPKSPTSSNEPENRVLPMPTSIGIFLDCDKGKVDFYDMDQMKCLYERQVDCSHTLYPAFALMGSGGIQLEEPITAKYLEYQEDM
# UniProt Q14258, whole entry, looked up: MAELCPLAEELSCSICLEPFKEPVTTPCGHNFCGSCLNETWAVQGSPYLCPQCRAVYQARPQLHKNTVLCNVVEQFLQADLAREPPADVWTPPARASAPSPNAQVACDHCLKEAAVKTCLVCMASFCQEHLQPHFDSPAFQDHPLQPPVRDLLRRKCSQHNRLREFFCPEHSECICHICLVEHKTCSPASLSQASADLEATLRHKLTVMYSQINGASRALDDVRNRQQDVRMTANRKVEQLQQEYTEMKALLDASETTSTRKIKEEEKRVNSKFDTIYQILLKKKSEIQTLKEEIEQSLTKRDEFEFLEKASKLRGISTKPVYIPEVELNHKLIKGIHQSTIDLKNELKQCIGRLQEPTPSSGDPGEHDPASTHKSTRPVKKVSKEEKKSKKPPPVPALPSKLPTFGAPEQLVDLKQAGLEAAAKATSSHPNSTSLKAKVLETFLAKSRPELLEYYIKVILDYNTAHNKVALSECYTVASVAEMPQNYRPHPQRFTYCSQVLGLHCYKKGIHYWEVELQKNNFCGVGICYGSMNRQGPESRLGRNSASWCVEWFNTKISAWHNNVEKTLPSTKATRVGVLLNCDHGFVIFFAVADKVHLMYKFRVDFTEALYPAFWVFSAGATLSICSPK
# UniProt Q96Q05, whole entry, looked up: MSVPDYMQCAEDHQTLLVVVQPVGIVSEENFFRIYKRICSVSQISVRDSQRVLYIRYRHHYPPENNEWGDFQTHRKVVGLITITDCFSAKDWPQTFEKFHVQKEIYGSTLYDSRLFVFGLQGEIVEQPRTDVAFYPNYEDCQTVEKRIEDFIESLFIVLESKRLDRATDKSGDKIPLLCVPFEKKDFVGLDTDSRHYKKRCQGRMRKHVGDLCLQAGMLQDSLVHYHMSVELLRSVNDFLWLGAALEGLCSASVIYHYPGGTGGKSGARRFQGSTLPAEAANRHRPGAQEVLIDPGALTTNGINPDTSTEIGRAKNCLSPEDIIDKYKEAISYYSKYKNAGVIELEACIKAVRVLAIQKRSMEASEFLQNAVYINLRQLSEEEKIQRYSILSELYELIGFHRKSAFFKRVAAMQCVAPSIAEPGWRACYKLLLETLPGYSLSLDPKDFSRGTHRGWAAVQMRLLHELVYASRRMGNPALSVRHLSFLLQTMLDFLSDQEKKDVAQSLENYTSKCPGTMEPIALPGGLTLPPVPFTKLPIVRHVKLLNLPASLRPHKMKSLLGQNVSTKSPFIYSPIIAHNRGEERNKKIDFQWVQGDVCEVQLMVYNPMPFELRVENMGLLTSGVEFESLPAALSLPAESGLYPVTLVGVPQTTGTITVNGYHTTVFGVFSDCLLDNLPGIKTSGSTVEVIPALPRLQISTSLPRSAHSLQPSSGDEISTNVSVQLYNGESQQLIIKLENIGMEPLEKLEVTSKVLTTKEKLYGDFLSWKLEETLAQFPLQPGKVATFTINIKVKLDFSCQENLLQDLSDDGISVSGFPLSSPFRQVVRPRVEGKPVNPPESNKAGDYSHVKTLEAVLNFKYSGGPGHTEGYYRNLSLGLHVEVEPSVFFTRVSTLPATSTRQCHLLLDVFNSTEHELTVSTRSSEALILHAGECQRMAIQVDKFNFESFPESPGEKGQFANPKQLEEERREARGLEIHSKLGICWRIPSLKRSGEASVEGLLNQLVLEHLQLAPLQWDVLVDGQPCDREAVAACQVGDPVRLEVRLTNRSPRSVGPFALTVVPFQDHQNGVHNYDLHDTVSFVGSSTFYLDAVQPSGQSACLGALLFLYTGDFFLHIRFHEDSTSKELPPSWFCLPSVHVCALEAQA
# UniProt Q7Z2T5: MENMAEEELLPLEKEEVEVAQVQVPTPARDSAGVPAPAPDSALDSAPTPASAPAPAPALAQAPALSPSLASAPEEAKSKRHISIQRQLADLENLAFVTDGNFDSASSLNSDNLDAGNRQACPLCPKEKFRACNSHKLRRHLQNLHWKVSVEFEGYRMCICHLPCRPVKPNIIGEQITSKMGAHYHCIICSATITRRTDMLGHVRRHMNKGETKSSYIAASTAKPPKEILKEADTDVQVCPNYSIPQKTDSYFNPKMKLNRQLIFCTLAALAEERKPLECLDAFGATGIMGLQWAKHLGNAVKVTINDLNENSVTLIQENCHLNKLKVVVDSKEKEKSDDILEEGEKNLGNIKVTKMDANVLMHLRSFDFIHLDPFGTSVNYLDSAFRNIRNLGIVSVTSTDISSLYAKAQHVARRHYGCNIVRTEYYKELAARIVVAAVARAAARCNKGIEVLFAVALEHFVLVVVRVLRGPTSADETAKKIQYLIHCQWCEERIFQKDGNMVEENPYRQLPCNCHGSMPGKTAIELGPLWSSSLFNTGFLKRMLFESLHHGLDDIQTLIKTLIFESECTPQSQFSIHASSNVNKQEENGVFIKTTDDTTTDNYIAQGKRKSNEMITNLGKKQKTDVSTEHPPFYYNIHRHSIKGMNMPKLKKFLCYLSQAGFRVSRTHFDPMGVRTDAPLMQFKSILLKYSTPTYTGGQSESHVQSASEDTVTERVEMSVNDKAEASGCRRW
# UniProt Q7Z392: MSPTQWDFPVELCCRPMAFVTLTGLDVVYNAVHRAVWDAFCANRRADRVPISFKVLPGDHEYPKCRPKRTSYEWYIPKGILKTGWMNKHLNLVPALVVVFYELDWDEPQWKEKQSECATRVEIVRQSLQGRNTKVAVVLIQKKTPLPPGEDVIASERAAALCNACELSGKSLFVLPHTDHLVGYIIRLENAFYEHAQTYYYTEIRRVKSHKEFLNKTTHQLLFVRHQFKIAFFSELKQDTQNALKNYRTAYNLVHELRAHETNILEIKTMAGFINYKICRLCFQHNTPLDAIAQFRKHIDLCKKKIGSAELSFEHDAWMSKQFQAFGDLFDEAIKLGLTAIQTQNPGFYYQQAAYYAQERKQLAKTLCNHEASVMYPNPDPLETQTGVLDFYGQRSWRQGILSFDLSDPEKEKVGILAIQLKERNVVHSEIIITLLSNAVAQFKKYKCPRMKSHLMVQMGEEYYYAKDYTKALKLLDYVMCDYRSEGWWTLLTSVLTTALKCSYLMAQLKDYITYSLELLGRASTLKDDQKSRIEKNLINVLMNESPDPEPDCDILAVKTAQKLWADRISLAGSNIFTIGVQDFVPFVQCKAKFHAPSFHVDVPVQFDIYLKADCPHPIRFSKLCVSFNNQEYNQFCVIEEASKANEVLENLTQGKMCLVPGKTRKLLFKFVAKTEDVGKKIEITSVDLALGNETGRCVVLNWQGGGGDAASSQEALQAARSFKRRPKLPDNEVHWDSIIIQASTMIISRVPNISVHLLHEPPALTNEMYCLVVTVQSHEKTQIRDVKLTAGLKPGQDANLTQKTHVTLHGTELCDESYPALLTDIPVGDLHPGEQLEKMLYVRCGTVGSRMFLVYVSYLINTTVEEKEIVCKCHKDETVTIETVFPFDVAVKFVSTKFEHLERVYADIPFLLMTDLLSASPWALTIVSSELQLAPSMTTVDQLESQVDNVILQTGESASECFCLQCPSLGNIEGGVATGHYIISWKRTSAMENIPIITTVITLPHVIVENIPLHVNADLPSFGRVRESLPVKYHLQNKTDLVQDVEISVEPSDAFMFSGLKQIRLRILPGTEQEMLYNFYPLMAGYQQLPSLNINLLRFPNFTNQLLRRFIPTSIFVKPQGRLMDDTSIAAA
# This is one part of the list.
# Compound: CC1Cc2ccccc2N1C(=O)C1CCCN(C1)C(=O)CCl (mixture of isomers) [TRIM25 ligand 11 (diastereomer mixture)]
# Assay: probe-labelled cysteine peptide fold change vs DMSO (competition) (log2 fold change); higher = less target engagement (more negative = stronger competition)
# Settings: THP-1, incubation time: 4 h
# 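Also: competitive chemoproteomic profiling in live THP-1 cells with an iodoacetamide desthiobiotin (IA-DTB) probe, comparing probe-labelled peptide intensities in compound-treated cells against DMSO-treated controls.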
Target,probe-labelled cysteine peptide fold change (10 µM),probe-labelled cysteine peptide fold change (50 µM)
TRIP4_Q15650_171_LAVLLPGRHPCDCLGQK (UniProt Q15650),-0.108,-0.0289
TRAFD1_O14545_64_SDMETHMAAEHCQVTCK (UniProt O14545),-0.0604,-0.132
TRMT10C_Q7L0Y3_123_TLMECVSNTAK (UniProt Q7L0Y3),-0.105,0.000645
TPRA1_Q86W33_296_CQVDETEEPDVHLPQPYAVAR (UniProt Q86W33),-0.128,-0.0324
TRMT1_Q9NXH9_376_FSAACGPPVTPECEHCGQR (UniProt Q9NXH9),0.157,0.015
TRAF2_Q12933_303_VAMTAEACSR (UniProt Q12933),-0.0475,0.0504
TRIM36_Q9NQ86_48_ELFTHPLILPCQHSICHK (UniProt Q9NQ86),0.0853,-0.0459
TRIM36_Q9NQ86_499_GSICSPCSR (UniProt Q9NQ86),-0.0502,-0.141
TRIM25_Q14258_174+176+179_EFFCPEHSECICHICLVEHK (UniProt Q14258),-0.0285,-0.208
TRABD_Q9H4I3_108_EVQPDVVVVELCQYR (UniProt Q9H4I3),0.0568,0.0505
TRIP13_Q15645_14_QALPCVAESPTVHVEVHQR (UniProt Q15645),0.0497,0.0192
TRIM32_Q13049_134_EADHQPPGHCTLPVK (UniProt Q13049),-0.0609,-0.199
TRAPPC9_Q96Q05_415_VAAMQCVAPSIAEPGWR (UniProt Q96Q05),-0.00239,0.0546
TRIM11_Q96F44_330_FDPGPCVLGQER (UniProt Q96F44),-0.0286,0.0502
TRIM25_Q14258_174+179_LREFFCPEHSECICHICLVEHK (UniProt Q14258),-0.0441,-0.0259
TRIM25_Q14258_174_EFFCPEHSECICHICLVEHK (UniProt Q14258),0.0464,0.195
TRMT1L_Q7Z2T5_186_MGAHYHCIICSATITR (UniProt Q7Z2T5),-0.126,0.152
TRAFD1_O14545_93_LAVCQHCDLELSILK (UniProt O14545),-0.0682,-0.0539
TRIM36_Q9NQ86_469_INRDDEMSWNEIEVCGTSK (UniProt Q9NQ86),0.091,-0.142
TRAPPC9_Q96Q05_1035_EAVAACQVGDPVR (UniProt Q96Q05),0.253,-0.0879
TRMT1L_Q7Z2T5_656_KFLCYLSQAGFR (UniProt Q7Z2T5),-0.445,-0.278

# An excerpt of these results, tab-delimited.
Target	probe-labelled cysteine peptide fold change (10 µM)	probe-labelled cysteine peptide fold change (50 µM)
TRAF2_Q12933_303_VAMTAEACSR (UniProt Q12933)	-0.0475	0.0504
TRIM36_Q9NQ86_48_ELFTHPLILPCQHSICHK (UniProt Q9NQ86)	0.0853	-0.0459
TRIM36_Q9NQ86_499_GSICSPCSR (UniProt Q9NQ86)	-0.0502	-0.141

# The listing continues:

Target,probe-labelled cysteine peptide fold change (10 µM),probe-labelled cysteine peptide fold change (50 µM)
TRANK1_O15050_739_KDDKPTLGAGAPDCSEVGEGHAQVGLGALQLVPDDNR (UniProt O15050),-0.0168,-0.0611
TRIM33_Q9UPN9_145+150_LLPCLHSFCLR (UniProt Q9UPN9),-0.0317,-0.233
TRMT1L_Q7Z2T5_121_QACPLCPK (UniProt Q7Z2T5),-0.0179,0.0301
TRIM25_Q14258_506_FTYCSQVLGLHCYK (UniProt Q14258),0.127,-0.287
TRAP1_Q12931_527_DTEVLFCFEQFDELTLLHLR (UniProt Q12931),0.0593,0.194
TRIP6_Q15654_368_AYHPGCFTCVVCHR (UniProt Q15654),0.00592,-0.0192
TRIM13_O60858_106_GHLGQPLNIFCLTDMQLICGICATR (UniProt O60858),0.0887,-0.0923
TRIM5_Q9C035_95_VDHCAR (UniProt Q9C035),-0.0308,-0.00128
TRIP12_Q14669_1538_TCPFFFPFDTR (UniProt Q14669),0.187,0.0456
TPP2_P29144_678+680_RHFIEVPEGATWAEVTVCSCSSEVSAK (UniProt P29144),0.155,0.225
TRAPPC8_Q9Y2L5_339_KGNTGIIHGACLTLTDHDR (UniProt Q9Y2L5),-0.0573,0.0941
TPRKB_Q9Y3C4_13_MQLTHQLDLFPECR (UniProt Q9Y3C4),-0.0889,-0.238
TRA2B_P62995_118+119_ANPDPNCCLGVFGLSLYTTER (UniProt P62995),-0.00483,-0.0866
TRIM25_Q14258_107+110_ASAPSPNAQVACDHCLK (UniProt Q14258),-0.0896,-0.121
TRAPPC11_Q7Z392_615_ADCPHPIR (UniProt Q7Z392),0.044,0.152
TRANK1_O15050_1158_NHVLCQEVQR (UniProt O15050),-0.0308,-0.166
TRIM24_O15164_134_CPVCSQECAER (UniProt O15164),-0.0741,0.159
TRAPPC11_Q7Z392_502_CSYLMAQLK (UniProt Q7Z392),0.192,0.235
TRMT1_Q9NXH9_150_TAAVGEICEEGLHVLEGLAASGLR (UniProt Q9NXH9),0.105,-0.0776
TPRA1_Q86W33_30_CLLLLYEDIGTSR (UniProt Q86W33),-0.144,-0.0162
